Results from patent US20120035244A1, “PARP1 TARGETED THERAPY” (THE REGENTS OF THE UNIVERSITY OF MICHIGAN, priority 2010, published 2012).
No constants are given. Whether binding was seen depends on the method and setting. For some assays here: In cells and extracts the contact can be indirect. Some entries that bind do so weakly or less than the wild type. Sequences can lack the tags named with a protein.

Protein sequences, listed by entry. Tags and fused reporters are not part of them. Residues count along the entry.
UniProt P78527: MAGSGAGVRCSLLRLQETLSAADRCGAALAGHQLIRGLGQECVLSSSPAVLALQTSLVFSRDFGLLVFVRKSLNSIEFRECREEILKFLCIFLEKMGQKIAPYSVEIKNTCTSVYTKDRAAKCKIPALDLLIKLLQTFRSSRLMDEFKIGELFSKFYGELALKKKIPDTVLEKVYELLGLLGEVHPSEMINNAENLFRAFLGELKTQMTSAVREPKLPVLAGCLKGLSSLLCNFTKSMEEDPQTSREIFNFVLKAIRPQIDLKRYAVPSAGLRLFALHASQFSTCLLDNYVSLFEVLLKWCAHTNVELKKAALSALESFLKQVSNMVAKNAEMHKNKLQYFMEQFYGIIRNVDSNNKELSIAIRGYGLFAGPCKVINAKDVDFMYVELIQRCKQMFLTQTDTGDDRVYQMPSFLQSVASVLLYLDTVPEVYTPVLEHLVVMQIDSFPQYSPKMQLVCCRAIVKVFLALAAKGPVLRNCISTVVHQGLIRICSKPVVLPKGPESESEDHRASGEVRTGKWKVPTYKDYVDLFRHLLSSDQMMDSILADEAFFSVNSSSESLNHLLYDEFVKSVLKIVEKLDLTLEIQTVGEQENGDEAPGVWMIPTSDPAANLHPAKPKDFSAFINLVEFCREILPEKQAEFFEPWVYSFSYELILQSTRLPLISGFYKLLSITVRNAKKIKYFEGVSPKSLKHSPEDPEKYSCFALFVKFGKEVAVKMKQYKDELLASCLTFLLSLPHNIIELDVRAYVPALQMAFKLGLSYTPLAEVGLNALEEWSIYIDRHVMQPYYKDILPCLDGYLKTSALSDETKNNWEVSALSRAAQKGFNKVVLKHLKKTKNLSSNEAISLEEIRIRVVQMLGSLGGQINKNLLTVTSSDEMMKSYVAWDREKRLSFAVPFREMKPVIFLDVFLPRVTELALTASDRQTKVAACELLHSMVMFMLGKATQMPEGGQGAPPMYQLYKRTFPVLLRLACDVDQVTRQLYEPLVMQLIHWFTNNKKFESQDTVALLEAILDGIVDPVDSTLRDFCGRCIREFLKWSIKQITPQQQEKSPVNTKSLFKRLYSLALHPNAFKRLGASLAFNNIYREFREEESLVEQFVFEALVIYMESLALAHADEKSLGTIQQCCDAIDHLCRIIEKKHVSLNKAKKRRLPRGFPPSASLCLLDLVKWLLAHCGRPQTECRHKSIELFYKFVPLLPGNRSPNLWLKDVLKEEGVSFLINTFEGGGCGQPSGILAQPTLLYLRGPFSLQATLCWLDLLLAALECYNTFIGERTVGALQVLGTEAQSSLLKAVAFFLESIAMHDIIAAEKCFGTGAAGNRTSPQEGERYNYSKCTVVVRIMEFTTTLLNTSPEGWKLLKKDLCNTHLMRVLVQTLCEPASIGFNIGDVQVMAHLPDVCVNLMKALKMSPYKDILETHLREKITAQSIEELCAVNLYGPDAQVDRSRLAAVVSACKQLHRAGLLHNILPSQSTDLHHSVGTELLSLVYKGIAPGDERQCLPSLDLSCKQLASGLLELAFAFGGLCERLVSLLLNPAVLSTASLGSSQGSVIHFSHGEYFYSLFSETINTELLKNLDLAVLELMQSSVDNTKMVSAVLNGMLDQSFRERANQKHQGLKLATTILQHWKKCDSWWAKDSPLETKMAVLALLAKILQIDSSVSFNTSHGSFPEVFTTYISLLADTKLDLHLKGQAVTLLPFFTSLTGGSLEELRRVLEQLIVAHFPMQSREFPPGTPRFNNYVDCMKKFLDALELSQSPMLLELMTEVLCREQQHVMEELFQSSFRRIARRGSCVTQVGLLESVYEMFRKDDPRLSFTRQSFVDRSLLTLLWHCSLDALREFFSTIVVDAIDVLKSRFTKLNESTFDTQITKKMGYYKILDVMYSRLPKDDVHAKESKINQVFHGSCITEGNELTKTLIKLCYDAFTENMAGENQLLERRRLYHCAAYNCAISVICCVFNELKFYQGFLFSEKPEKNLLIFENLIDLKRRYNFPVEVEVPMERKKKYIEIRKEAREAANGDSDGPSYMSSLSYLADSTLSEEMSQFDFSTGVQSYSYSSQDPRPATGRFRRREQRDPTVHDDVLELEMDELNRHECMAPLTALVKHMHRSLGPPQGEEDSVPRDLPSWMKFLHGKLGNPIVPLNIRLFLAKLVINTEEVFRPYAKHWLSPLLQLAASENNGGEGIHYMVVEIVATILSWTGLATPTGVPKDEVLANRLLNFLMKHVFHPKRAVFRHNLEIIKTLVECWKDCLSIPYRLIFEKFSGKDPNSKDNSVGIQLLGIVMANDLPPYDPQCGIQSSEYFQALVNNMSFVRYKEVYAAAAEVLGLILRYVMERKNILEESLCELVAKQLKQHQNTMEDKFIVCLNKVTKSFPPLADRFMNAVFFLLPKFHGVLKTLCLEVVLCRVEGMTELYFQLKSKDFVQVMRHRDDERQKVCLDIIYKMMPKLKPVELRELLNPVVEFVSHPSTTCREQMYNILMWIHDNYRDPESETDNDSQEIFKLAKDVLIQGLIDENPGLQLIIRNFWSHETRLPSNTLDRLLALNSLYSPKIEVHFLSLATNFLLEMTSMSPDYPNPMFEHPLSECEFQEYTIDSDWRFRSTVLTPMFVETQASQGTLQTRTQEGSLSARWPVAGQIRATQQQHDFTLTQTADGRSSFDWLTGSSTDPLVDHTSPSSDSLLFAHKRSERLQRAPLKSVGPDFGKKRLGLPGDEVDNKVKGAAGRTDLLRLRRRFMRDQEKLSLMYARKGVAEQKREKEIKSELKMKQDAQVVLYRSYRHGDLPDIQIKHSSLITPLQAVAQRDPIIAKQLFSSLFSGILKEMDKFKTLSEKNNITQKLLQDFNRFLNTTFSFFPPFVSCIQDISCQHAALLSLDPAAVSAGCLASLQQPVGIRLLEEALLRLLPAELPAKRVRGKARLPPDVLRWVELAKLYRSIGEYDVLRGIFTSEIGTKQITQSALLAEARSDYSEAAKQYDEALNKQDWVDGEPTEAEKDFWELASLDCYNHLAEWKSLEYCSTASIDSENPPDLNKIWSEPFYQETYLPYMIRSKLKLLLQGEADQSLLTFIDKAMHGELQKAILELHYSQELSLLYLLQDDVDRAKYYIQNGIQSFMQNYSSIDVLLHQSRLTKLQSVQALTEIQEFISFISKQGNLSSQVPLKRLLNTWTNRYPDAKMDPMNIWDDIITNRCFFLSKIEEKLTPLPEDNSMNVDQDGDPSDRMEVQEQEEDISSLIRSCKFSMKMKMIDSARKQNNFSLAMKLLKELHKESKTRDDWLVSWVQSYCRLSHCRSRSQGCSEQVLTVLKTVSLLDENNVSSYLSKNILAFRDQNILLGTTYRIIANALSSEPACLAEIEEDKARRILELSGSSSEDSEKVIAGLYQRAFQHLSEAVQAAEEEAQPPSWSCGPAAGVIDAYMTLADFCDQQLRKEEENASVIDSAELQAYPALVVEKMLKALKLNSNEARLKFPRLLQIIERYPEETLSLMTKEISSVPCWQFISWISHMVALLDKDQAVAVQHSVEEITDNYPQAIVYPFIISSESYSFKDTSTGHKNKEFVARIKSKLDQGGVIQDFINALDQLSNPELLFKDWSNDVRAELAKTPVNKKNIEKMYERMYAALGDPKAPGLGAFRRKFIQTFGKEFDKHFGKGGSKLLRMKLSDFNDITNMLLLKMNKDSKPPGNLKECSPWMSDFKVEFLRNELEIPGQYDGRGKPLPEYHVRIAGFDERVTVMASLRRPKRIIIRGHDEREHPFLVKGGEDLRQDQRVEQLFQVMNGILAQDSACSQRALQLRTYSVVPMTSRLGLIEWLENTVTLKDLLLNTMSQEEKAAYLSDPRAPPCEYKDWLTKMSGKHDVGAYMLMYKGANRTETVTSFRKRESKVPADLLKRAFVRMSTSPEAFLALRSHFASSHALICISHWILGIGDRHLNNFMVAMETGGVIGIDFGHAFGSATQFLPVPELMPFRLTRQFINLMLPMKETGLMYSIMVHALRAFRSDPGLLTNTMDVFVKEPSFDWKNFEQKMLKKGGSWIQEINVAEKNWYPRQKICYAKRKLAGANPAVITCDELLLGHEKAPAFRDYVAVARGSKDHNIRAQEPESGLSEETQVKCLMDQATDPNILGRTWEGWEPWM
UniProt P09874, residues 2-1014: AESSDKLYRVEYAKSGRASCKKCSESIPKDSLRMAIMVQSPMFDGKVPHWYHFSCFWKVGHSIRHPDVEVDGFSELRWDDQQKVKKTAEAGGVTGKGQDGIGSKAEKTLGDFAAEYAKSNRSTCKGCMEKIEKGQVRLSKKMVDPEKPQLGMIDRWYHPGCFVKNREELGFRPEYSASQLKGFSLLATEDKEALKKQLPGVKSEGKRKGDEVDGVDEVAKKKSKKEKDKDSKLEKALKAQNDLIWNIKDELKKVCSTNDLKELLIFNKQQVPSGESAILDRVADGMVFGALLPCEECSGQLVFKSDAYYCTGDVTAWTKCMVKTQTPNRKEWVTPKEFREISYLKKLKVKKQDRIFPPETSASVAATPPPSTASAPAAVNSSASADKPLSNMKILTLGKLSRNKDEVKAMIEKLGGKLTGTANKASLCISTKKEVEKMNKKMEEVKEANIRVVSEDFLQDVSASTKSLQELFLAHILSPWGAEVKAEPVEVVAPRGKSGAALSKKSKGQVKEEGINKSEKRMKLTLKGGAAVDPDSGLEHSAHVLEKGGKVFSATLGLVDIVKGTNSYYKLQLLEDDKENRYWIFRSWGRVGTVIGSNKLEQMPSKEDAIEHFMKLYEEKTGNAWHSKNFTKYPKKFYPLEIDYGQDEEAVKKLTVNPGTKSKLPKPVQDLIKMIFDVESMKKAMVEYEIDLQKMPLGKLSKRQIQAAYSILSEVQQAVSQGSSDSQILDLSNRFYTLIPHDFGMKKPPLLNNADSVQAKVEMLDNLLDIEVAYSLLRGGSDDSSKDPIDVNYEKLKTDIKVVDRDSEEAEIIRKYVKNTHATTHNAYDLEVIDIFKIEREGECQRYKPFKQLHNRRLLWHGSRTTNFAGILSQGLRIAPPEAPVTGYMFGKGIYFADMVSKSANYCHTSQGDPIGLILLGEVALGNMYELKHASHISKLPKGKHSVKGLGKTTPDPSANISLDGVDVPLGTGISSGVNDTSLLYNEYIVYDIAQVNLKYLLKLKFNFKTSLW

Tests used:
[1] = target: DNA-dependent protein kinase catalytic subunit (DNA-PKcs) (human) (UniProt P78527); assay: IP of epitope-tagged ERG (V5 in VCaP, FLAG in HEK293) and LC-MS/MS; list of interactions identified with high confidence
[2] = target: poly-(ADP-ribose) polymerase (PARP1) (human) (UniProt P09874); assay: IP with agarose-coupled ERG antibody from three ERG-rearranged tissues with or without ethidium bromide, Western blot (FIG. 9E)
[3] = target: poly-(ADP-ribose) polymerase (PARP1) (human) (UniProt P09874); assay: co-immunoprecipitation, Western blot (FIG. 1)
[4] = target: poly-(ADP-ribose) polymerase (PARP1) (human) (UniProt P09874); assay: ERG immunoprecipitation from VCaP cells, Western blot (FIG. 1b)
[5] = target: poly-(ADP-ribose) polymerase (PARP1) (human) (UniProt P09874); assay: ERG immunoprecipitation from human prostate cancer tissues, Western blot (FIG. 1c)
[6] = target: poly-(ADP-ribose) polymerase (PARP1) (human) (UniProt P09874); assay: ERG immunoprecipitation from VCaP cells in 100 µM ethidium bromide, Western blot (FIG. 1b)
[7] = target: poly-(ADP-ribose) polymerase (PARP1) (human) (UniProt P09874); assay: IP-Western in PC3 cells overexpressing ERG (FIG. 20b)
[8] = target: poly-(ADP-ribose) polymerase (PARP1) (human) (UniProt P09874); assay: IP-Western in PC3-ERG cells (FIG. 20b)

binding [1]	binding [2]	binding [3]	binding [4]	binding [5]	binding [6]	binding [7]	binding [8]	Binder
binds								Epitope-tagged ERG used as bait for IP-mass spectrometry (V5-tagged in VCaP cells, FLAG-tagged in HEK293 cells) (protein, human, UniProt P11308 47-479, looked up, not shown: small tags and cut ends) MSPRVPQQDWLSQPPARVTIKMECNPSQVNGSRNSPDECSVAKGGKMVGSPDTVGMNYGSYMEEKHMPPPNMTTNERRVIVPADPTLWSTDHVRQWLEWAVKEYGLPDVNILLFQNIDGKELCKMTKDDFQRLTPSYNADILLSHLHYLRETPLPHLTSDDVDKALQNSPRLMHARNTGGAAFIFPNTSVYPEATQRITTRPDLPYEPPRRSAWTGHGHPTPQSKAAQPSPSTVPKTEDQRPQLDPYQILGPTSSRLANPGSGQIQLWQFLLELLSDSSNSSCITWEGTNGEFKMTDPDEVARRWGERKSKPNMNYDKLSRALRYYYDKNIMTKVHGKRYAYKFDFHGIAQALQPHPPESSLYKYPSDLPYMGSYHAHPQKMNFVAPHPPALPVTSSSFFAAPNPYWNSPTGGIYPNTRLPTSHMPSHLGTYY
	binds	binds	binds	binds	binds	binds	binds	ERG, TMPRSS2:ERG gene fusion product (TMPRSS2 exon 1 fused to ERG1 exon 2) (protein, human, UniProt P11308 33-479, looked up) MTASSSSDYGQTSKMSPRVPQQDWLSQPPARVTIKMECNPSQVNGSRNSPDECSVAKGGKMVGSPDTVGMNYGSYMEEKHMPPPNMTTNERRVIVPADPTLWSTDHVRQWLEWAVKEYGLPDVNILLFQNIDGKELCKMTKDDFQRLTPSYNADILLSHLHYLRETPLPHLTSDDVDKALQNSPRLMHARNTGGAAFIFPNTSVYPEATQRITTRPDLPYEPPRRSAWTGHGHPTPQSKAAQPSPSTVPKTEDQRPQLDPYQILGPTSSRLANPGSGQIQLWQFLLELLSDSSNSSCITWEGTNGEFKMTDPDEVARRWGERKSKPNMNYDKLSRALRYYYDKNIMTKVHGKRYAYKFDFHGIAQALQPHPPESSLYKYPSDLPYMGSYHAHPQKMNFVAPHPPALPVTSSSFFAAPNPYWNSPTGGIYPNTRLPTSHMPSHLGTYY
